Here are results for 27 compounds from PubChem BioAssay AID330 (DTP/NCI, 2004).

The list does not hold the whole screen: it gathers tests that were run many times, whatever their T/C, doses with no T/C, and many T/C values between a quarter and a half above the control. Further doses and runs are listed elsewhere. T/C is the treated group as % of the vehicle group. Some entries give survivors of the animals treated and no T/C: the source holds a T/C of zero for them, seemingly a mark for toxic or unscored doses. Some doses without a T/C left all or most animals alive at the check, yet need not have been tolerated: the source hardly ever lists a survival T/C far under the control, and the zero likely stands for such cases as well. Survivors were counted at the toxicity check, usually on the fifth day, unless a day is given; later deaths do not show. Schedules are NCI's codes, read here as Q, the interval in days (D) or hours (H), X, the number of doses. Some molecules as drawn cover several salts, stereoisomers or complexes of the source; a dose is that of the sample tested. Additions like (4×) count equal records among those shown. Some entries were tested several times; their values stand side by side, smallest first. For survival time, the PubChem record calls one and a half times the control and up active, and a quarter to a half above the control has no call in these data; cut-offs in other NCI protocols can differ. Some T/C values carry the count of animals alive at the toxicity check (mostly the fifth day); without a count, all were alive then.

This test deals with P388 leukemia ip, CD2F1 mice, survival T/C. In words: NCI In Vivo Anticancer Drug Screen. Data for tumor model P388 Leukemia (intraperitoneal) in CD2F1 (CDF1) mice. Conditions: T/C endpoint: median survival time, higher T/C = longer survival.
The mark [1] stands for this setting: dose: 60.0 mg/kg/injection, schedule: Q01DX005 (ip), vehicle: saline with Tween-80.
The mark [2] stands for this setting: dose: 120.0 mg/kg/injection, schedule: Q01DX005 (ip), vehicle: saline with Tween-80.
Where [3] appears, read: dose: 240.0 mg/kg/injection, schedule: Q01DX005 (ip), vehicle: saline with Tween-80.
[4] abbreviates: dose: 200.0 mg/kg/injection, schedule: Q01DX005 (ip), vehicle: Klucel (hydroxypropylcellulose) (HPC).
Where [5] appears, read: dose: 100.0 mg/kg/injection, schedule: Q01DX005 (ip), vehicle: Klucel (hydroxypropylcellulose) (HPC).
Setting [6] is: dose: 200.0 mg/kg/injection, schedule: Q01DX005 (ip), vehicle: saline with Tween-80.
Setting [7] is: dose: 100.0 mg/kg/injection, schedule: Q01DX009 (ip), vehicle: saline.
[8] abbreviates: dose: 200.0 mg/kg/injection, schedule: Q01DX009 (ip), vehicle: saline.
[9] abbreviates: dose: 50.0 mg/kg/injection, schedule: Q01DX005 (ip), vehicle: Klucel (hydroxypropylcellulose) (HPC).
The mark [10] stands for this setting: dose: 100.0 mg/kg/injection, schedule: Q01DX009 (ip), vehicle: saline with Tween-80.

As to `C[CH2][Sn]([CH2]C)([O][P+](=O)C[Si](C)(C)c1ccccc1)[O][P+](=O)C[Si](C)(C)c1ccccc1` (stereo unspecified), the T/C under setting [1] was 132 % of control. In addition, the survivor count is 0 of 6 and 4 of 6 under setting [2]; 0 of 6 under setting [3].

In the case of `CC(C)CCC[C@@H](C)[C@H]1CC[C@H]2[C@@H]3CC[C@H]4C[C@@H](N)CC[C@]4(C)[C@H]3CC[C@]12C`, the survivor count under setting [4] is listed as 1 of 5.

As for `CC#CCOCC(O)CO` (stereo unspecified), the T/C is 130 and 131 % of control (dose: 100.0 mg/kg/injection, schedule: Q01DX009 (ip), vehicle: water); 141 % of control (dose: 150.0 mg/kg/injection, schedule: Q01DX009 (ip), vehicle: water). Further, for the setting “dose: 200.0 mg/kg/injection, schedule: Q01DX009 (ip), vehicle: water”, the survivor count is listed as 3 of 6.

With `O=[N+]([O-])c1ccc(-c2cn3nc(-c4ccccc4)c(-c4ccccc4)nc3n2)cc1`, the survivor count is recorded as 6 of 6 under setting [5] and 5 of 6 under setting [4].

`CCn1c(=S)[nH]c2sc3c(c2c1=O)CCCC3`: the survivor count under setting [3] is 3 of 6.

In the case of `CN(C)CCCNc1c2c(nc3ccc(Cl)cc13)CCCC2`, the survivor count under setting [6] is 0 of 6.

With `COc1ccc(C(=O)c2c(C(=O)NOCCCc3ccccc3)[nH]c(=O)c(C#N)c2C(=O)NOCCCc2ccccc2)cc1`, the survivor count is listed as 0 of 6 (dose: 120.0 mg/kg/injection, schedule: Q01DX005 (ip), vehicle: saline) and 0 of 6 (dose: 240.0 mg/kg/injection, schedule: Q01DX005 (ip), vehicle: saline).

As to `Cc1cccc(C(=O)CC[N+](C)(C)C)c1`, the survivor count (dose: 50.0 mg/kg/injection, schedule: Q01DX009 (ip), vehicle: saline) is reported as 3 of 6; the survivor count under setting [7] is 0 of 6; the survivor count under setting [8] was 0 of 6.

For the compound `Nc1ccc2ccc(N)cc2c1`, under “dose: 400.0 mg/kg/injection, schedule: Q01DX005 (ip), vehicle: saline with Tween-80”, the T/C is 135 % of control [5 of 6 alive].

On to `O=C1c2cccc([N+](=O)[O-])c2C(=O)c2nccnc21`, for which the survivor count by setting is: (dose: 25.0 mg/kg/injection, schedule: Q01DX005 (ip), vehicle: Klucel (hydroxypropylcellulose) (HPC)) 1 of 6; under setting [9], 0 of 6; under setting [5], 0 of 6; under setting [4], 0 of 6.

On to `C=C1CC2(C)CCC(OC(=O)C3(C)OC3C)C(C)(OC(C)=O)C2CC1=C(C)C` (stereo unspecified), for which the survivor count (dose: 600.0 mg/kg/injection, schedule: Q01DX001 (ip), vehicle: Klucel (hydroxypropylcellulose) (HPC)) is 2 of 6.

As to `Cc1ccc(S(=O)(=O)OCCOCCOc2ccc3ccccc3c2-c2c(OCCOS(=O)(=O)c3ccc(C)cc3)ccc3ccccc23)cc1`, the survivor count (dose: 400.0 mg/kg/injection, schedule: Q01DX001 (ip), vehicle: saline with Tween-80) is given as 0 of 6.

Regarding `[Cr+6].[NH-]CCC[NH-].[NH-]CCC[NH-].[NH-]CCC[NH-]`, under “dose: 100.0 mg/kg/injection, schedule: Q01DX001 (ip), vehicle: saline”, the T/C was 145 % of control.

Consider `Cc1ncn2ncnc2c1C`, for which the survivor count runs as follows: (dose: 200.0 mg/kg/injection, schedule: Q04DX003 (ip), vehicle: saline with Tween-80) 6 of 6; (dose: 400.0 mg/kg/injection, schedule: Q04DX003 (ip), vehicle: saline with Tween-80) 0 of 6.

As for `Cc1ccc(-n2nc(C)cc2C)nn1`, the survivor count under setting [8] is 3 of 6.

For the compound `C(=P(c1ccccc1)(c1ccccc1)c1ccccc1)[P+](c1ccccc1)(c1ccccc1)c1ccccc1`, the T/C is 127 % of control (dose: 12.5 mg/kg/injection, schedule: Q01DX009 (ip), vehicle: saline); 140 % of control (dose: 25.0 mg/kg/injection, schedule: Q01DX009 (ip), vehicle: saline); 137 % of control (dose: 25.0 mg/kg/injection, schedule: Q01DX009 (ip), vehicle: suspension in saline).

As to `O=C1N2CCNc3ccccc3C(c3ccccc3)N1CC2` (stereo unspecified), the survivor count reads like this: under setting [9], 0 of 6; under setting [5], 0 of 6; under setting [4], 0 of 6.

As for `S=c1nc(-c2ccccn2)c(-c2ccccn2)n[nH]1`, the T/C (dose: 100.0 mg/kg/injection, schedule: Q01DX005 (ip), vehicle: saline with Tween-80) was 127 % of control.

Take `C=C1C(C)C2C(Cc3ccccc3)NC(=O)C23C(OC(C)=O)C=CC(C)(O)C(=O)C(C)C/C=C/C3C1O` (stereo unspecified): where the note is “dose: 10.0 mg/kg/injection, schedule: Q01DX009 (ip), vehicle: Klucel (hydroxypropylcellulose) (HPC)”, the T/C is 139 % of control.

Take `CCOC(=O)N1CCN(C(=S)NNC(C)c2cccc[n+]2[O-])CC1` (stereo unspecified): under setting [6], the survivor count is on record as 3 of 6.

For the compound `COc1ccc(CSC(=S)Nc2cccc(S(F)(F)(F)(F)F)c2)cc1`, the survivor count under setting [10] is 6 of 6. The T/C under setting [7] was 125 % of control.

Take `Nc1c2cc3c(cc2c[n+]2ccc4ccccc4c12)OCO3`: the T/C (dose: 50.0 mg/kg/injection, schedule: Q04DX003 (ip), vehicle: distilled water + Tween-80) was 93 [5 of 6 alive], 100, 111 [5 of 6 alive], 118 % of control. The survivor count reads like this: (dose: 100.0 mg/kg/injection, schedule: Q04DX003 (ip), vehicle: distilled water + Tween-80) 0 of 6, 1 of 6, 5 of 6; (dose: 200.0 mg/kg/injection, schedule: Q04DX003 (ip), vehicle: distilled water + Tween-80) 0 of 6; (dose: 400.0 mg/kg/injection, schedule: Q04DX003 (ip), vehicle: distilled water + Tween-80) 0 of 6.

Turning to `C[N+](C)(C)CCCOC1=Nc2ccccc2O/C1=C/c1ccccc1`, the survivor count runs as follows: (dose: 25.0 mg/kg/injection, schedule: Q01DX009 (ip), vehicle: Klucel (hydroxypropylcellulose) (HPC)) 5 of 6; (dose: 50.0 mg/kg/injection, schedule: Q01DX009 (ip), vehicle: Klucel (hydroxypropylcellulose) (HPC)) 0 of 6.

With `O=C1OC2(CCCCC2)OC(=O)C1=C/C=C/c1ccc([N+](=O)[O-])o1`, the survivor count is 6 of 6 under setting [10] and 4 of 6 (dose: 200.0 mg/kg/injection, schedule: Q01DX009 (ip), vehicle: saline with Tween-80).

Take `CNC(=O)OCc1c(COC(=O)NC)c(-c2ccco2)n2c1CCC2`: the survivor count under setting [1] is given as 0 of 6, the survivor count under setting [2] is 0 of 6 and the survivor count under setting [3] is on record as 0 of 6.

As to `Cc1ccc(O)c(C(NCCO)c2ccccc2)c1` (stereo unspecified), the survivor count is recorded as 1 of 6 (dose: 200.0 mg/kg/injection, schedule: Q04DX002 (ip), vehicle: saline) and 0 of 6 (dose: 400.0 mg/kg/injection, schedule: Q04DX002 (ip), vehicle: saline).

With `C[CH2][Sn]([Cl])([Cl])[CH2]C`, the T/C (dose: 12.5 mg/kg/injection, schedule: Q04DX003 (ip), vehicle: saline) is 136 % of control. The survivor count by setting is: (dose: 25.0 mg/kg/injection, schedule: Q04DX003 (ip), vehicle: saline) 0 of 6 and 1 of 6; (dose: 100.0 mg/kg/injection, schedule: Q04DX003 (ip), vehicle: saline) 0 of 6 (2×); (dose: 200.0 mg/kg/injection, schedule: Q04DX003 (ip), vehicle: saline) 0 of 6 (2×); (dose: 400.0 mg/kg/injection, schedule: Q04DX003 (ip), vehicle: saline) 0 of 6 (2×).
